# Data taken from patent EP1135374B9, “BENZIMIDAZOLE COMPOUNDS THAT ARE VITRONECTIN RECEPTOR ANTAGONISTS” (SCHERING CORPORATION, priority 1998, dated 2000).
# By UniProt entry, the sequences of proteins in these tests, tags left out. Residues count along the entry.
# UniProt P05106, 27-788: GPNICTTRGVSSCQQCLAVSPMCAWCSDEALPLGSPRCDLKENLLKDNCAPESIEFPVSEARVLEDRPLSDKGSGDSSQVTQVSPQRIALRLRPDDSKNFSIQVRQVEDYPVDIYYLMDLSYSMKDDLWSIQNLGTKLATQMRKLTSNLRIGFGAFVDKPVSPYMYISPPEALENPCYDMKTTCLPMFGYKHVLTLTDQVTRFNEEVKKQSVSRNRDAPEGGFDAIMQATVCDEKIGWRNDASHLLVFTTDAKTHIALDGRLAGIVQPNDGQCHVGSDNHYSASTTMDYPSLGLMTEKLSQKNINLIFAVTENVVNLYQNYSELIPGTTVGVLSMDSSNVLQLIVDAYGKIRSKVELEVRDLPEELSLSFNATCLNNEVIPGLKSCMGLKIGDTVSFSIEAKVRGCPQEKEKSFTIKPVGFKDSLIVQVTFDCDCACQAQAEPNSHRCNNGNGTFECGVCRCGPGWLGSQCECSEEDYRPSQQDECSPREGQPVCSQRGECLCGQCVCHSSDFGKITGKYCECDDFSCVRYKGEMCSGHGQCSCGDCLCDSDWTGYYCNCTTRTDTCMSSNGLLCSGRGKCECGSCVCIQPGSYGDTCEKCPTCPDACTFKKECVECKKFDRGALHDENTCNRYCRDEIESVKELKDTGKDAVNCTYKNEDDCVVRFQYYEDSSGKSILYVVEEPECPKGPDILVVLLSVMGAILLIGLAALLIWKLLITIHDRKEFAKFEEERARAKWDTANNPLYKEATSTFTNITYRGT
# UniProt P08514, 32-887 limits assumed: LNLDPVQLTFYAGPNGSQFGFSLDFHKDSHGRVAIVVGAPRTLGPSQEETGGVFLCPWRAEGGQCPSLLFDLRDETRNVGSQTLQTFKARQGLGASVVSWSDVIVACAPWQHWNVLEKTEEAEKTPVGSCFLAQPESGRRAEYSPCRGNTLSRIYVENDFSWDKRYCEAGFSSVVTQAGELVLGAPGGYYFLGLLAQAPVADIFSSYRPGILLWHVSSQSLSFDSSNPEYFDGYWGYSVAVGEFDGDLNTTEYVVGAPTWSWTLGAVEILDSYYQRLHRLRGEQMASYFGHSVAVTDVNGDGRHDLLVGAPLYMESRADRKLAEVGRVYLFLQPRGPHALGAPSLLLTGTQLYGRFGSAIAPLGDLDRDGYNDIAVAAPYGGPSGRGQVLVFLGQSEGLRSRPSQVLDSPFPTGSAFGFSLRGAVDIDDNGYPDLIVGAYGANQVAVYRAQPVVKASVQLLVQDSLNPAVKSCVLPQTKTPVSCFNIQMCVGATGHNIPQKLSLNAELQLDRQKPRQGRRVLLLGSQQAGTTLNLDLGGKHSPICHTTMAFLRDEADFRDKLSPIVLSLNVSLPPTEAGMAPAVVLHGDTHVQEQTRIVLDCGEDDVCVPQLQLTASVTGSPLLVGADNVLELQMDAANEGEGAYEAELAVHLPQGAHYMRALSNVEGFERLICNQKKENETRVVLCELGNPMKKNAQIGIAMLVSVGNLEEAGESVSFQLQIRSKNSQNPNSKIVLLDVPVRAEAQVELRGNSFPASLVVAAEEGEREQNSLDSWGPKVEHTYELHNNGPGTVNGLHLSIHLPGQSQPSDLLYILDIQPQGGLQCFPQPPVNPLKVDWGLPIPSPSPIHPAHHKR
# UniProt P08514, 891-1039 partner limits assumed: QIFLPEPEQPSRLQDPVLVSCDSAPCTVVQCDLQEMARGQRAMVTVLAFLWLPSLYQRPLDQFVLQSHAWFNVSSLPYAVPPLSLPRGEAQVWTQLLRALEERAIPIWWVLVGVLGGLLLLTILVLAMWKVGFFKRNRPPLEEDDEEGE
# For at least one compound, name, drawing or mass did not settle the structure.
# Biological target: purified αllbβ3 receptor (Homo sapiens, UniProt P05106+P08514)
# Assay: similar competitive binding assay with 125I-echistatin on αllbβ3 receptor, used for the specificity index
# Details: Table 10; specificity index IC50 αllbβ3/ IC50 αvβ3
# Description: To measure the relative affinity of the test compounds for αvβ3 receptors versus affinity for αllbβ3 receptors, similar competitive assays were carried out using purified αllbβ3 receptor and ^125I-echistatin (iodinated using the lactoperoxidase method). The specificity index, which is a measure of the relative binding affinity for αvβ3, versus αllbβ3, may be determined by dividing the IC50 value for αllbβ3 by the IC50 value for αvβ3.
structure (smiles),measurement,value
CC(C)NC(=O)N(Cc1ccc(C(=O)NC[C@H](NC(=O)OCc2ccccc2)C(=O)O)cc1)Cc1nc2ccccc2[nH]1 [Example 5-30],SPECIFICITY αIIbβ3 / αvβ3,296
